According to patent US7601753B2, “Pyrrolidine melanocortin-specific compounds” (Palatin Technologies, Inc., priority 2001, dated 2009):
At least one compound was matched to its structure with a doubt left. Non-standard residues stand in square brackets, D forms with d. Residues, ends and D or L forms follow the SMILES beside them. *: point of attachment. Hyp = O=C(O)[C@@H]1C[C@@H](O)CN1; Nle = CCCC[C@H](N)C(=O)O; NH(CH2)3NH2 = NCCCN*; Bn = c1ccc(C*)cc1

Chains of the proteins cited; added tags and fusions are not shown. Lines headed by an entry give the natural chain unless they say otherwise; changes in a name come on top.
UniProt Q01727: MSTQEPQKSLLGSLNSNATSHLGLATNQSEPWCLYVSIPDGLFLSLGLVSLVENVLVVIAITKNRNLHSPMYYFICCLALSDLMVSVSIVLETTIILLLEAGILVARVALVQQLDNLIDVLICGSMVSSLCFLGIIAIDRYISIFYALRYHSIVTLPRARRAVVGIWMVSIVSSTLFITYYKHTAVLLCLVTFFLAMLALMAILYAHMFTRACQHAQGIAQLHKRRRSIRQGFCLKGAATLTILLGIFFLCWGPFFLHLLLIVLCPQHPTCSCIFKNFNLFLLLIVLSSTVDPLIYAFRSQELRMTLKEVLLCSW

Target: T1, MC1-R (Mus musculus, UniProt Q01727)
T1 construct: in B-16 mouse melanoma cells (containing MC1-R); endogenous in cells
Test: cAMP assay for agonist/antagonist status, MC1-R
Assay type: cell-based
Details: cAMP assay as in Example 4

## CCCC[C@H](NC(C)=O)C(=O)N[C@@H](C)C(=O)N[C@@H](Cc1cnc[nH]1)C(=O)N[C@H](Cc1ccccc1)C(=O)N1C[C@H](OCc2ccccc2)C[C@H]1C(=O)NCCCN [Example 9, Ac-Nle-Ala-His-D-Phe-Hyp(Bzl)-NH(CH2)3—NH2] (Ac-[Nle]AH[dF][Hyp](Bn)-{NH(CH2)3NH2})
  agonist/antagonist status at MC1-R: agonist
